# Where a name gives a salt, the structure may show the parent alone. ± gives the standard deviation of the averaged measurements. This is one part of the list. Values are raw readings; no control value is given beside them.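 HeLa cells imaged for ribosome-assembly readouts (ENP1 staining with or without export block, or inducible tagged ribosomal protein reporters); machine learning classified each cell's signal location against solvent (DMSO) controls. Hits exceeded the DMSO false-positive mean by five standard deviations, then were visually confirmed; three biological replicates.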
# System: HeLa K (ENP1 immunofluorescence, +LMB)
# Test: fraction of cells with nucleolar or nucleolar/nucleoplasmic ENP1 signal (MainHitrate); higher = more cells with nucleolar/nuclear readout signal (for ENP1 -LMB: less RNAPI inhibition; for +LMB ENP1 and RP reporters: stronger nuclear/nucleolar retention, i.e. ribosome biogenesis defect)
# Settings: concentration: 1 µM; treatment time: 6 h; ENP1 +LMB; leptomycin B: 20 nM, last 1.5 h
row,Structure (SMILES),fraction
1,CC(C)c1c(CN(C)C(C)Cc2ccccc2)n(C)n(-c2ccccc2)c1=O (stereo not drawn) [Famprofazone],0.112 ± 0.14
2,CCC(COC(=O)c1cc(OC)c(OC)c(OC)c1)(c1ccccc1)N(C)C (stereo not drawn) [Trimebutine],0.0498 ± 0.061
3,CC(=O)O[C@H]1C[C@@H]2CC[C@@H]3[C@H](CC[C@@]4(C)[C@H]3C[C@H]([N+]3(C)CCCCC3)[C@@H]4OC(C)=O)[C@@]2(C)C[C@@H]1[N+]1(C)CCCCC1 [Pancuronium (Pavulon)],0.103 ± 0.14
4,CC(C)N(CCC(C(N)=O)(c1ccccc1)c1ccccn1)C(C)C (stereo not drawn) [Disopyramide Phosphate],0.123 ± 0.18
5,CC[C@H]1CN2CCc3cc(OC)c(OC)cc3[C@@H]2C[C@@H]1C[C@H]1NCCc2cc(OC)c(OC)cc21 [Emetine],0.987 ± 0.011
6,CCOC(=O)c1cncn1[C@H](C)c1ccccc1 [Etomidate],0.0552 ± 0.05
7,COc1ccc(OC)c(C(O)C(C)N)c1 (stereo not drawn) [Methoxamine HCl],0.141 ± 0.15
8,CCCN1C[C@H](CSC)C[C@@H]2c3cccc4[nH]cc(c34)C[C@H]21 [Pergolide mesylate],0.0838 ± 0.12
9,CC(C)N(CCNC(=O)CN1CCCC1=O)C(C)C [Pramiracetam],0.09 ± 0.12
10,CN1[C@@H]2CC[C@H]1C[C@@H](OC(=O)[C@H](CO)c1ccccc1)C2 [Hyoscyamine (Daturine)],0.0527 ± 0.069
11,c1ccc2c(c1)sc1ccccc12 [Dibenzothiophene],0.0784 ± 0.11
12,Cc1cccc(C)c1NC1=NCCCS1 [Xylazine HCl],0.109 ± 0.15
13,NCC1(CC(=O)O)CCCCC1 [Gabapentin Hydrochloride],0.0763 ± 0.052

# — the supplement of paper PMC12542422
